Experimental data taken from the supplement of paper PMC10849652.
The list shows a part of the results.

Chains of the proteins cited; added tags and fusions are not shown. Lines headed by an entry give the natural chain unless they say otherwise; changes in a name come on top.
UniProt Q8N0Z8: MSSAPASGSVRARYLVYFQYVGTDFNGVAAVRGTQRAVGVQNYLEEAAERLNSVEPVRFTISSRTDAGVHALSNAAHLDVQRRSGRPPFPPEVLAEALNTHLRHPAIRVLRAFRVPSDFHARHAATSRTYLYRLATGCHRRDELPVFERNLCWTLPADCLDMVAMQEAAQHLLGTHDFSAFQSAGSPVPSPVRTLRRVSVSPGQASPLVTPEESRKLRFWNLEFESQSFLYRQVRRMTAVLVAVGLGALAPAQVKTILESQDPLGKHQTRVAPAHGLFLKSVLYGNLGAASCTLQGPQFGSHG
UniProt Q05397, whole entry, looked up: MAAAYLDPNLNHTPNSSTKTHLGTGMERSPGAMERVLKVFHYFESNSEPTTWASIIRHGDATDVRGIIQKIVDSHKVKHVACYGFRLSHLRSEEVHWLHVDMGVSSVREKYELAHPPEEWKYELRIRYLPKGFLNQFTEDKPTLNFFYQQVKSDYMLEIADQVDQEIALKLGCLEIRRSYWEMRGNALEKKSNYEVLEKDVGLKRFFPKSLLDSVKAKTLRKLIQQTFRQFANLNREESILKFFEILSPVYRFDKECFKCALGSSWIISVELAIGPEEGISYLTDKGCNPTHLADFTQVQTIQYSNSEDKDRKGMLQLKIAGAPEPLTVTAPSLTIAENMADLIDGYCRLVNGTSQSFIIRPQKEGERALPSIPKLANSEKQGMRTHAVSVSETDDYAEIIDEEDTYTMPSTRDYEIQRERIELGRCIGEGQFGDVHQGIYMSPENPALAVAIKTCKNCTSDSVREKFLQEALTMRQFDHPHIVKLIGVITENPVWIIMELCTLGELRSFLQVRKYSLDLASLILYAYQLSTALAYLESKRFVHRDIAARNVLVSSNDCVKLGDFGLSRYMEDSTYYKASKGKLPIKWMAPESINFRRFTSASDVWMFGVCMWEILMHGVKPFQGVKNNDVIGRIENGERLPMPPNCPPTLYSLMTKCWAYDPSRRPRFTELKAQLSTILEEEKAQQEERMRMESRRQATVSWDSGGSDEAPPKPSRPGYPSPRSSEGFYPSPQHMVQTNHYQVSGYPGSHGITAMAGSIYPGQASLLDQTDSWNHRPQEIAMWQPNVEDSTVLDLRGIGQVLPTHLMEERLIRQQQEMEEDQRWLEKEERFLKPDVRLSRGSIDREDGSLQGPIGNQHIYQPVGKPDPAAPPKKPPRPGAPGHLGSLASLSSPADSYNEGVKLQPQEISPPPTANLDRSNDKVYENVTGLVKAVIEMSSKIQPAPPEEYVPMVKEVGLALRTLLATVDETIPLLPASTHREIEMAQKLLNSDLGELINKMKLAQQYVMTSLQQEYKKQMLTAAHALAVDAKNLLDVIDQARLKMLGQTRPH
UniProt Q9Y5Y4: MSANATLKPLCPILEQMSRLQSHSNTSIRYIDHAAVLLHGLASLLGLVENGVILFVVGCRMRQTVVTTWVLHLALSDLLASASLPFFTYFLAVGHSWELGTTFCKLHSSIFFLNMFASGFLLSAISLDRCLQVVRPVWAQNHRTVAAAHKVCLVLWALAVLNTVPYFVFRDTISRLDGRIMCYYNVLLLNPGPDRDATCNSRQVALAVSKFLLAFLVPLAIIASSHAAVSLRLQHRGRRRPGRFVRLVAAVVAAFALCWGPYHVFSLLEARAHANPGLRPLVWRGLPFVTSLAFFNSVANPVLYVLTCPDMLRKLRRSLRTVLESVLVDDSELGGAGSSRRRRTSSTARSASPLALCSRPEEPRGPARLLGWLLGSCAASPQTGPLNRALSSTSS
UniProt Q86YD1: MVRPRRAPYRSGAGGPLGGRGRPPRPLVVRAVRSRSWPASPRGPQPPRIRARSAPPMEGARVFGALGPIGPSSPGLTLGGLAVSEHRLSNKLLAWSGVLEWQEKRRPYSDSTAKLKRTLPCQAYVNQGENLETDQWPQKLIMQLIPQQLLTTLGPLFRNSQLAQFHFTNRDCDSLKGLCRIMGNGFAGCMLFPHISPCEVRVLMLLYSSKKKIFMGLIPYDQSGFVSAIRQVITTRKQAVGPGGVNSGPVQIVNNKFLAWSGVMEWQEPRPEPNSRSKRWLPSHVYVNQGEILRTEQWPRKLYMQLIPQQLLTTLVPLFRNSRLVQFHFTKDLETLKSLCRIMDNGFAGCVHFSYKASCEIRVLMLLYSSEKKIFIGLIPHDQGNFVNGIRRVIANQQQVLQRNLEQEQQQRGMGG
UniProt Q96N64: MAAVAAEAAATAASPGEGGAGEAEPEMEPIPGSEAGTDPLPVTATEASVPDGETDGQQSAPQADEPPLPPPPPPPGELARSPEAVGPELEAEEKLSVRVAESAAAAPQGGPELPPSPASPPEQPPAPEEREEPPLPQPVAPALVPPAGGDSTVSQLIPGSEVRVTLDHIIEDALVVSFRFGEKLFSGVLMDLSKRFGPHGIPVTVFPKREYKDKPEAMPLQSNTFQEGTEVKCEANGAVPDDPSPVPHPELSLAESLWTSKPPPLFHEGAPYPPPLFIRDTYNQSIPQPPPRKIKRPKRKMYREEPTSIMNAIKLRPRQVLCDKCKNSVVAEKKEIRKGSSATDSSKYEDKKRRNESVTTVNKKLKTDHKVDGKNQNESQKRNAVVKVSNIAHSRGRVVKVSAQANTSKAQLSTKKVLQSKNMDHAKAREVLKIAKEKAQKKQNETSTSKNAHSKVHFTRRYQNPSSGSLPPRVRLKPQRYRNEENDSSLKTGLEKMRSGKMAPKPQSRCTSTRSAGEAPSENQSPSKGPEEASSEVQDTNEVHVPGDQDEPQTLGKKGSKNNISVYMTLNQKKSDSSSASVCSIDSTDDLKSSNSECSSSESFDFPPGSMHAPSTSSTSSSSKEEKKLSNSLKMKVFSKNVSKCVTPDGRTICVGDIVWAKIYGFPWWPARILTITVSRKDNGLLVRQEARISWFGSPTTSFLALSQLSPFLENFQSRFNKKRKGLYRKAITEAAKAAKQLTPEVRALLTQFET
UniProt Q16651: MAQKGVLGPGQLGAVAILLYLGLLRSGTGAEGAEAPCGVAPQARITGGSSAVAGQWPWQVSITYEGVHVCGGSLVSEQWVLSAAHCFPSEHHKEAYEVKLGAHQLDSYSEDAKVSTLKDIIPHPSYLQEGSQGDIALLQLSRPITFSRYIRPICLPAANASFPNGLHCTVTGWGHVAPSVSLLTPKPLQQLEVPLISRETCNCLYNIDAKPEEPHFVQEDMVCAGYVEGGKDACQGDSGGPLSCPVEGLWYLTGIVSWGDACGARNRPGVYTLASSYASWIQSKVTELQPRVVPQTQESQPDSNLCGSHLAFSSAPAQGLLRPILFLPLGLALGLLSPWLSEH
UniProt P07478, whole entry, looked up: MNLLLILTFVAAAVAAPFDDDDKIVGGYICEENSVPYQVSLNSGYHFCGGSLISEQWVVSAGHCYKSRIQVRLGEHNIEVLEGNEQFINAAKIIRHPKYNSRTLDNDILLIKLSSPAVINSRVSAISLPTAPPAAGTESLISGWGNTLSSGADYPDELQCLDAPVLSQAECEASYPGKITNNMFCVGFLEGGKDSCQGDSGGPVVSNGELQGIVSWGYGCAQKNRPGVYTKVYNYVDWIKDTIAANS
UniProt P60484: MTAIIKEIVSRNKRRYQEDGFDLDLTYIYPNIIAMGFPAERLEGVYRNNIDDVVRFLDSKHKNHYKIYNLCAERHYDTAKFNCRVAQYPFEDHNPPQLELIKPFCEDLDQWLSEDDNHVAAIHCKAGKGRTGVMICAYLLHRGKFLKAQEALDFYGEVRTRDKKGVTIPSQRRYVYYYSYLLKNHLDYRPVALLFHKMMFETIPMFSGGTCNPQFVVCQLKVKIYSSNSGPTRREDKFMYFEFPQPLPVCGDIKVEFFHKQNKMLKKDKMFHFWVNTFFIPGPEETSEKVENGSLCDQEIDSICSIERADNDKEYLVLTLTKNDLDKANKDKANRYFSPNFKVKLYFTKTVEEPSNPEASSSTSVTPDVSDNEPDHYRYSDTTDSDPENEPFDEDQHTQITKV
UniProt Q6NUJ5: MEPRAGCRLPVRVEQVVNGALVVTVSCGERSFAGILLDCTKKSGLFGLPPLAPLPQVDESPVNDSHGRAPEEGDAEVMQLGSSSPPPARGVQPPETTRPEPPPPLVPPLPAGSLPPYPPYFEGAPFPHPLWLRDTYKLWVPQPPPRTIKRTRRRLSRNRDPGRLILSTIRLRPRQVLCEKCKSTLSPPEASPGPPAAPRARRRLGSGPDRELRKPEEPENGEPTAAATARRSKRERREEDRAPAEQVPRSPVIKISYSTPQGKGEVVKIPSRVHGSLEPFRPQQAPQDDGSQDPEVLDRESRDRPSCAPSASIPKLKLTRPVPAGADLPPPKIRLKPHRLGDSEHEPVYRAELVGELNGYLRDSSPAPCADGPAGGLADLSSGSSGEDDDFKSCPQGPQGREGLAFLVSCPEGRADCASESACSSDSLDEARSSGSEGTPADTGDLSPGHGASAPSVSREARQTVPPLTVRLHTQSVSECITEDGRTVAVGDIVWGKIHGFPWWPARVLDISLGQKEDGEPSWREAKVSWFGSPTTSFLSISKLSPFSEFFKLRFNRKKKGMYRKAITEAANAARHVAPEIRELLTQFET
UniProt P23467: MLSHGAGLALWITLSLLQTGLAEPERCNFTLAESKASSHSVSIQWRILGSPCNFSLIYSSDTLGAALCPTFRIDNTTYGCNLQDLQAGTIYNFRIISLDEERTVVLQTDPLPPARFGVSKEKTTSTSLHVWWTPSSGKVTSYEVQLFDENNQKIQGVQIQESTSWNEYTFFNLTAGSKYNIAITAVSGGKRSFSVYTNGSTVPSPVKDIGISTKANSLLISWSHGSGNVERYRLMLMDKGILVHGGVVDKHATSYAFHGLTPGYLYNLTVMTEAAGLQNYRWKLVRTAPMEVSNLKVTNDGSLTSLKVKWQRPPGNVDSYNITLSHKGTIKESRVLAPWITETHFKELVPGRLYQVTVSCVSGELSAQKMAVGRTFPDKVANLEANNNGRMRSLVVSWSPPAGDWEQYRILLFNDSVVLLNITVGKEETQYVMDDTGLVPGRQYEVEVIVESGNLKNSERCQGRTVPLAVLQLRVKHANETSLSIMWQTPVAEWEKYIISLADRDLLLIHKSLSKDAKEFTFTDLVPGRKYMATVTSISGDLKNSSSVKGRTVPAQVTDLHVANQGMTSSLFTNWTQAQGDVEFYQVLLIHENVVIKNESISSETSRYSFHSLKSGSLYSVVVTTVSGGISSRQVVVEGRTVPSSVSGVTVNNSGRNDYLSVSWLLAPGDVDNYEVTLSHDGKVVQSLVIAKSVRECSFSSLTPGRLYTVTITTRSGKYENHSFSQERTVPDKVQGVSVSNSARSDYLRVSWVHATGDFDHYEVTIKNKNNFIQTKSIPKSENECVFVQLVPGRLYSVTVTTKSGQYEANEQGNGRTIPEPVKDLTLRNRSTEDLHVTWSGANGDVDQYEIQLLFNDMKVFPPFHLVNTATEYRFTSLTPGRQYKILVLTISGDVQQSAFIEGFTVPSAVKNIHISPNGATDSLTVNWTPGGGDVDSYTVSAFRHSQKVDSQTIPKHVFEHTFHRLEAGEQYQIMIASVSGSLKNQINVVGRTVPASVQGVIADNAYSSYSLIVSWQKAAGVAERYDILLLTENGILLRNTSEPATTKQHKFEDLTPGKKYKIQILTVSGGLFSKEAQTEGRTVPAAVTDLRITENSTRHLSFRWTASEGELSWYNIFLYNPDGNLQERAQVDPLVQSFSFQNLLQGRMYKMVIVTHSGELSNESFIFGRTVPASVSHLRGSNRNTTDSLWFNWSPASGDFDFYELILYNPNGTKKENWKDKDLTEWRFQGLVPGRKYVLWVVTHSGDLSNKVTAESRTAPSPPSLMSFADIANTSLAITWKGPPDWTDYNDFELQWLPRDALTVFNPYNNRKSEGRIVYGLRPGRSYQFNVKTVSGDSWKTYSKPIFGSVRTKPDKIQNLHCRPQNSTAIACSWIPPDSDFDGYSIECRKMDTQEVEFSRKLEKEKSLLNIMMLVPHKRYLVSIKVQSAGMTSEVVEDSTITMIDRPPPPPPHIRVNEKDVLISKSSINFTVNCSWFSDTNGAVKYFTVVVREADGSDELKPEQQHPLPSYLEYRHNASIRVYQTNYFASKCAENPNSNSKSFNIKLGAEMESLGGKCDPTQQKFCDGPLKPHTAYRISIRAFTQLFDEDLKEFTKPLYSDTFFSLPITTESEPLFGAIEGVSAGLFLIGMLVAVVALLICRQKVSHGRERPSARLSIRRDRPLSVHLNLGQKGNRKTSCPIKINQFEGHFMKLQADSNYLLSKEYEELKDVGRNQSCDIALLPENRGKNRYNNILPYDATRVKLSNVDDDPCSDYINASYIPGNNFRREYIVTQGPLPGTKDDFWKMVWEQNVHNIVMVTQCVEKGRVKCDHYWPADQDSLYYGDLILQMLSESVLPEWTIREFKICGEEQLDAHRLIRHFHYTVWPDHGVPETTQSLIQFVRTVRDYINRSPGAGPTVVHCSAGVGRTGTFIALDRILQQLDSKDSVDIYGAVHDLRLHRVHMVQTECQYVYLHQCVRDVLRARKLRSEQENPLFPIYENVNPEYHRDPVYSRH

How the values were obtained:
Assay in all cases: log2 fold change, soluble protein after heating vs DMSO (PISA); higher = thermal stabilisation; K562 lysate, 10 uM; active = over 0.2 and 3.5 SD of the protein, either way, in both replicates (recomputed)
vemurafenib = compound: CCCS(=O)(=O)Nc1ccc(F)c(C(=O)c2c[nH]c3ncc(-c4ccc(Cl)cc4)cc23)c1F [vemurafenib]
Procedure, shortened: (§1)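 K562 pellets were dounce-homogenised in PBS pH 7.4 containing 1 mM MgCl2, and the crude extract, at 1 mg/mL protein, was exposed to 10 μM compound for 30 min. Aliquots were heated for 3 min across 48°C-58°C, pooled, brought to 0.5% NP-40 at 4°C and spun at 21,000xg for 90 min, with the supernatant taken as soluble protein. TMTpro 16plex LC-MS/MS with equalised channel sums quantified that protein. Values are log-two fold changes in thermal stability relative to solvent controls, taken from duplicates.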

barasertib = compound: CCN(CCCOc1ccc2c(Nc3cc(CC(=O)Nc4cccc(F)c4)[nH]n3)ncnc2c1)CCOP(=O)(O)O [barasertib]
Procedure, shortened: as §1

[1] = compound: CC[C@@H]1C(=O)N(C)c2cnc(Nc3ccc(C(=O)NC4CCN(C)CC4)cc3OC)nc2N1C1CCCC1
Procedure, shortened: as §1

[2] = compound: CCn1cc(-c2ccnc3[nH]c(-c4cccc(CN(C)C)c4)cc23)c(-c2ccc(NC(=O)N(C)C)cc2)n1
Procedure, shortened: as §1

[3] = compound: CN1CCC(CNc2ccc3ncc(-c4cccc(OC(F)(F)F)c4)n3n2)CC1
Procedure, shortened: as §1

sotrastaurin = compound: CN1CCN(c2nc(C3=C(c4c[nH]c5ccccc45)C(=O)NC3=O)c3ccccc3n2)CC1 [sotrastaurin]
Procedure, shortened: as §1

[4] = compound: CCCS(=O)(=O)Nc1ccc(F)c(C(=O)c2c[nH]c3ncc(Cl)cc23)c1F
Procedure, shortened: as §1

volasertib = compound: CC[C@@H]1C(=O)N(C)c2cnc(Nc3ccc(C(=O)N[C@H]4CC[C@H](N5CCN(CC6CC6)CC5)CC4)cc3OC)nc2N1C(C)C [volasertib]
Procedure, shortened: as §1

[5] = compound: CCn1c(C(=O)N(C2CC2)C2CC2)cc2c3c(ncn3C)c(Nc3cc(C)n(C)n3)nc21
Procedure, shortened: as §1

saracatinib = compound: CN1CCN(CCOc2cc(OC3CCOCC3)c3c(Nc4c(Cl)ccc5c4OCO5)ncnc3c2)CC1 [saracatinib]
Procedure, shortened: as §1

Measured: log2 fold change

PSMB2, A0A087WVV1
inactive: vemurafenib 0.098 | barasertib 0.136 | [1] 0.053 | [2] -0.015 | [3] 0.057 | sotrastaurin 0.15

PUSL1 (UniProt Q8N0Z8)
inactive: vemurafenib 0.114 | [4] -0.097 | barasertib 0.077 | [1] -0.022 | volasertib 0.029 | [5] -0.101 | [2] 0.023 | [3] 0.028 | saracatinib -0.223 | sotrastaurin -0.085

PSMA3 (UniProt H0YJ03)
inactive: vemurafenib -0.015 | [4] 0 | [1] 0.13 | volasertib 0.002 | [5] -0.046 | saracatinib 0.025 | sotrastaurin 0.017

PTK2 isoform 2 (UniProt Q05397)
inactive: [4] -0.101 | barasertib 0.05 | [1] -0.076 | volasertib -0.387 | saracatinib -0.063

PTGDR2 (UniProt Q9Y5Y4)
inactive: [2] -0.19 | [3] 0.03

PSMD6 (UniProt Q15008)
inactive: [4] 0.112 | barasertib -0.068 | volasertib -0.058 | [2] 0.157 | [3] -0.055 | sotrastaurin -0.128

PRRG1 (UniProt O14668)
inactive: [5] 0.052

PTOV1 (UniProt Q86YD1)
inactive: vemurafenib 0.18 | [2] 0.063 | [3] -0.013 | saracatinib -0.071 | sotrastaurin 0.068

PTGES3 isoform 4 (UniProt Q15185)
inactive: barasertib -0.036 | [5] 0.159

PSEN2 (UniProt P49810)
inactive: barasertib -0.01 | [1] 0.036 | [5] -0.044 | [2] -0.189 | [3] 0.051 | saracatinib -0.032 | sotrastaurin 0.132

PSMA7 isoform 2 (UniProt O14818)
inactive: [1] 0.09 | saracatinib 0.043 | sotrastaurin 0.193

Fetched one by one from the list above, three records:
PTGES3 isoform 4 (UniProt Q15185)
inactive: barasertib -0.036 | [5] 0.159

PSMA7 isoform 2 (UniProt O14818)
inactive: [1] 0.09 | saracatinib 0.043 | sotrastaurin 0.193

PSEN2 (UniProt P49810)
inactive: barasertib -0.01 | [1] 0.036 | [5] -0.044 | [2] -0.189 | [3] 0.051 | saracatinib -0.032 | sotrastaurin 0.132

(continued)

PWWP2A (UniProt Q96N64)
inactive: [2] -0.157 | [3] 0.337

PTPN11, A0A0U1RRI0
inactive: [4] -0.036 | volasertib 0

PRXL2A (UniProt Q9BRX8)
inactive: barasertib 0.063 | [5] -0.14 | [2] 0.089 | [3] 0.116 | saracatinib 0.005

PSMD1, A0A087WW66
inactive: [4] -0.15 | barasertib -0.056 | volasertib -0.186

PUM2 (UniProt C9JW01)
inactive: [2] 0.03 | [3] 0.201

PSTK (UniProt H7BYY4)
inactive: [2] 0.1 | [3] -0.207 | saracatinib -0.162

PTBP1, A0A0U1RRM4
inactive: [4] 0.069 | volasertib 0.082

PRSS8 (UniProt Q16651)
inactive: [5] -0.223 | [2] 0.092 | [3] 0.03 | saracatinib 0.002 | sotrastaurin 0.059

PTPA (UniProt A6PVN8)
inactive: [1] -0.25

PRSS2 (UniProt P07478)
inactive: [4] -0.033 | volasertib -0.057 | [2] -0.024 | [3] 0.06 | saracatinib 0.057

PSIP1 (UniProt V9GYT7)
inactive: barasertib 0.134 | [5] 0.013 | [2] -0.119 | [3] -0.12 | sotrastaurin 0.006

PTPN11 (UniProt Q06124)
inactive: [2] -0.067 | [3] 0.012

PRR12 (UniProt Q9ULL5)
inactive: barasertib 0.064 | [5] 0.12 | [2] -0.274 | [3] 0.032 | sotrastaurin 0.001

PSMC5 (UniProt J3KRP2)
inactive: [4] -0.09 | volasertib -0.047

PTEN isoform 2 (UniProt P60484)
inactive: [4] 0.043 | barasertib 0.018 | [1] 0.21 | volasertib -0.055 | [5] -0.002 | [2] -0.088 | [3] 0.14 | saracatinib 0.093 | sotrastaurin 0.094

PRR16 (UniProt Q569H4)
inactive: sotrastaurin 0.021

PWWP2B (UniProt Q6NUJ5)
inactive: [4] -0.071 | volasertib -0.032 | [2] -0.187 | [3] 0.02 | saracatinib -0.076

PRSS50 (UniProt Q9UI38)
inactive: [4] 0.014 | barasertib 0.13 | [1] 0.073 | volasertib -0.033 | [2] -0.105 | [3] 0.08 | saracatinib 0.032

PSMB8 (UniProt P28062)
inactive: [4] 0.064 | barasertib 0.009 | [1] 0.041 | volasertib 0.012 | [5] 0.034 | [2] -0.013 | [3] 0.03 | saracatinib -0.048 | sotrastaurin -0.046

PTPA (UniProt Q5T949)
inactive: [4] 0.043 | volasertib -0.142

PTGER3 isoform 2 (UniProt P43115)
inactive: [4] 0.128 | volasertib -0.06 | sotrastaurin 0.117

PTPRF (UniProt P10586)
inactive: vemurafenib 0.263 | [2] -0.015 | [3] 0.068 | sotrastaurin 0.074

PTMA isoform 2 (UniProt P06454)
inactive: barasertib -0.09

PSME3 (UniProt K7EMD0)
inactive: [4] -0.041 | volasertib -0.009

PTPRB isoform 3 (UniProt P23467)
inactive: [4] 0.202 | barasertib 0.211 | volasertib 0.093 | saracatinib -0.093

PTPN14 (UniProt Q15678)
inactive: [1] 0.346 | sotrastaurin 0.101

PSMA7 (UniProt H0Y586)
inactive: [4] 0.099 | barasertib -0.135 | volasertib -0.03 | [2] -0.204 | [3] 0.123 | sotrastaurin 0.04

PRRC2B (UniProt H0Y412)
inactive: [5] 0.009
